Consider two substances from publication PMC6995400.

Sequences of proteins named here, by UniProt entry; tags and fusion partners are left off.
UniProt Q15717: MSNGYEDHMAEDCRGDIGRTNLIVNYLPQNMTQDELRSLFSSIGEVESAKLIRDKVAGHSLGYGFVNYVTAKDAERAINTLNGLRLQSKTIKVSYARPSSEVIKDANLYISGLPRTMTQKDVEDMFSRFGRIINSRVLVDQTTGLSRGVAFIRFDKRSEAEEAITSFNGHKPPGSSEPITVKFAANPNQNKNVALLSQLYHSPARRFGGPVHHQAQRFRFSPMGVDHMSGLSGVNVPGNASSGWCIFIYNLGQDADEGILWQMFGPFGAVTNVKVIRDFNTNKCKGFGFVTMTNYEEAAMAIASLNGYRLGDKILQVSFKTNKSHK
UniProt Q00534: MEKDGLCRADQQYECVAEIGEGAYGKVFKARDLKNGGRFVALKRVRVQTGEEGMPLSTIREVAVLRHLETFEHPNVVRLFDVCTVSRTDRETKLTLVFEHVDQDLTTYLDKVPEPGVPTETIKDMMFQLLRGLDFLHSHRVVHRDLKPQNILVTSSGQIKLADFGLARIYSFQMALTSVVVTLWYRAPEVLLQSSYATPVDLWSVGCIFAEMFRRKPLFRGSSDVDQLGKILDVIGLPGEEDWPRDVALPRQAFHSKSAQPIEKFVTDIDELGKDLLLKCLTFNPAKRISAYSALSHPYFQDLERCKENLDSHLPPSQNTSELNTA

No constants are given. Whether binding was seen depends on the method and setting. In cells and extracts the contact can be indirect. Some results given as binding are weak or reduced against the parent protein; the word gives no strength.

The target in assay [1] is ELAV-Like Protein 1 (HuR) (human (endogenous in Ca Ski)) (UniProt Q15717). Briefly: co-IP; clarified cell lysates incubated overnight with IgG, anti-HuR or anti-CDK6 antibody, bead A/G 2 hours, washes with PBS with 1% glycerol, Western blot; cells with and without p16 silencing. Background: In western blotting, separated proteins are transferred to a membrane and probed.
Assay [2] addresses Cyclin-Dependent Kinase 6 (CDK6) (human (endogenous in Ca Ski)) (UniProt Q00534). The description is as above.

Regarding “Cyclin-Dependent Kinase 6 (CDK6) (from UniProt Q00534 1-326) (enzyme)”, the binding result in assay [1] is “binds”.
“ELAV-Like Protein 1 (HuR) (from UniProt Q15717 1-326)”: the binding result in assay [2] is reported as “binds”.
